# Measurements from the supplement of paper PMC10032668.
# Chains of the proteins cited; added tags and fusions are not shown.
# CALR, P27797, UniProt P27797, whole entry: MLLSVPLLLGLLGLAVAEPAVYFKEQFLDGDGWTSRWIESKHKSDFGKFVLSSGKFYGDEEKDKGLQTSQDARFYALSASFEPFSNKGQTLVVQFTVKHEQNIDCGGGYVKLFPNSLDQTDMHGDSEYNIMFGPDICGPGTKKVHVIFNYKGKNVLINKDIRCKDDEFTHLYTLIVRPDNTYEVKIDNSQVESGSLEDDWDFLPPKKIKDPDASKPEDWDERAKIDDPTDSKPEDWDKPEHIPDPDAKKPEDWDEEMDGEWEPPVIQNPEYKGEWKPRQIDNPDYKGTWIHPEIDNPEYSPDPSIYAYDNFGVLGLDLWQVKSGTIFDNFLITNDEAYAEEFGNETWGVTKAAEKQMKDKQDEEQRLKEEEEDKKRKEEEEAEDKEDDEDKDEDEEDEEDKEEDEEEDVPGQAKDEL
# PPP2R5D, Q14738, UniProt Q14738, whole entry: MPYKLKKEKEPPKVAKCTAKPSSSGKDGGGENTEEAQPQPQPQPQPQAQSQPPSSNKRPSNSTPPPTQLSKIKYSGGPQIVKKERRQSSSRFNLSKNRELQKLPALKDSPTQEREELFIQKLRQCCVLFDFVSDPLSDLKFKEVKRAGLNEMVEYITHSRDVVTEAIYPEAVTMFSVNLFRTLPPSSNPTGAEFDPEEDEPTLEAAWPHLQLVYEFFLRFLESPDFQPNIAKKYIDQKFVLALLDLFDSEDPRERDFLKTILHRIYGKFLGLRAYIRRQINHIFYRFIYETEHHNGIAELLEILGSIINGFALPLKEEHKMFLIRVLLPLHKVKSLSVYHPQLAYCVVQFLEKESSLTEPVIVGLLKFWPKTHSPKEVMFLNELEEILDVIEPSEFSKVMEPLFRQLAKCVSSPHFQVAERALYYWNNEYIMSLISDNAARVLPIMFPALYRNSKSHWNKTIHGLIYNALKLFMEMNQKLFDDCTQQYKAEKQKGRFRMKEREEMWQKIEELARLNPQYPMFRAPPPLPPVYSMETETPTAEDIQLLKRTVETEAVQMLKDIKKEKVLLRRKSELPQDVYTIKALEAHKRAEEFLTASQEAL
# MTHFD1L, Q6UB35, UniProt Q6UB35, whole entry: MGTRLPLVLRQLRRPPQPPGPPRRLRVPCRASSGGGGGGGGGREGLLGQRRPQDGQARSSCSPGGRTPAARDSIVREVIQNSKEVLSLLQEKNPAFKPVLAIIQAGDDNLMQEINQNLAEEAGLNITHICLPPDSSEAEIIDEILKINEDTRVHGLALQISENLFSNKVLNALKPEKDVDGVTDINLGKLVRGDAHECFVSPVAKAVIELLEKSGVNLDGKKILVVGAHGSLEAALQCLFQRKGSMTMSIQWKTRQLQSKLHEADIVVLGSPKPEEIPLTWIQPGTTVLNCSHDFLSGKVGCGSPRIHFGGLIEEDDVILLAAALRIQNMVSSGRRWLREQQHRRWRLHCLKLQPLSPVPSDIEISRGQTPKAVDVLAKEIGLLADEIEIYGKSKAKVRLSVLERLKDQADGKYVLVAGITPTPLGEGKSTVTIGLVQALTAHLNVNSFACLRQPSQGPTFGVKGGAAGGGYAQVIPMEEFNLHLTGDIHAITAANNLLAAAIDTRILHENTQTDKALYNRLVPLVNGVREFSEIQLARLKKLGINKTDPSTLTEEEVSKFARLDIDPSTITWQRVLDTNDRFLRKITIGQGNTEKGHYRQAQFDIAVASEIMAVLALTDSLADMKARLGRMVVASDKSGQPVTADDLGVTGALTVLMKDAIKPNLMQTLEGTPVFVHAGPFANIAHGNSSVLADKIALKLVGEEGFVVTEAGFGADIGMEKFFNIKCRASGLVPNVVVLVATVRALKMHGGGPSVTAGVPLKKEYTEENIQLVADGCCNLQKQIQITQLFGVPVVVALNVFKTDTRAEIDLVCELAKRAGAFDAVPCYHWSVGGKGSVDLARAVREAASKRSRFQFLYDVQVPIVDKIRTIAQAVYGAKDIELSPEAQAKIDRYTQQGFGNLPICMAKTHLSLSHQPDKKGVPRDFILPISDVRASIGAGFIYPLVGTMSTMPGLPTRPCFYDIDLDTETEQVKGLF
# Some of the results follow. The list holds hits alone, and they repeat only in part.
# Assays:
# Assay in all cases: PRISMA enrichment of interactor (LFQ) in peptide spot vs all other peptide spots (log2 fold change); higher = stronger / more specific binding of the interactor to the peptide
# [1] = biological target: ABCF3, Q9NUQ8
# Protocol: (§1)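 PRISMA: 15-aa overlapping tiles (offset 8 aa) of 60 microproteins, plus SOS1/GLUT1 control peptides, were spot-synthesized on cellulose membranes in triplicate. Membranes were incubated with benzonase-treated HEK293T lysate, and bound proteins were identified by LC-MS/MS with LFQ. Enrichment is the log2 fold change of each protein in one spot versus all other spots. Only interactors passing the significance cutoff are listed.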
# [2] = biological target: ACTL6A, O96019
# Protocol: as §1
# [3] = biological target: ACTR2, P61160
# Protocol: as §1
# [4] = biological target: ADNP, Q9H2P0
# Protocol: as §1
# [5] = biological target: BCOR, Q6W2J9
# Protocol: as §1
# [6] = biological target: BLM, P54132
# Protocol: as §1
# [7] = biological target: BTF3, P20290
# Protocol: as §1
# [8] = biological target: C1orf131, Q8NDD1
# Protocol: as §1
# [9] = biological target: CALR, P27797
# Protocol: as §1
# [10] = biological target: CCDC59, Q9P031
# Protocol: as §1
# [11] = biological target: CENPB, P07199
# Protocol: as §1
# [12] = biological target: CGN, Q9P2M7
# Protocol: as §1
# [13] = biological target: DDX49, Q9Y6V7
# Protocol: as §1
# [14] = biological target: DHCR7, Q9UBM7
# Protocol: as §1
# [15] = biological target: DPM3, Q9P2X0
# Protocol: as §1
# [16] = biological target: DSC1, Q08554
# Protocol: as §1
# [17] = biological target: EEF1AKNMT, Q8N6R0
# Protocol: as §1
# [18] = biological target: EXOSC10, Q01780
# Protocol: as §1
# [19] = biological target: FIP1L1, Q6UN15
# Protocol: as §1
# [20] = biological target: HP, P00738
# Protocol: as §1
# [21] = biological target: KTI12, Q96EK9
# Protocol: as §1
# [22] = biological target: LENG1, Q96BZ8
# Protocol: as §1
# [23] = biological target: MAGEB2, O15479
# Protocol: as §1
# [24] = biological target: MBNL1, Q9NR56
# Protocol: as §1
# [25] = biological target: MCM10, Q7L590
# Protocol: as §1
# [26] = biological target: MPO, P05164
# Protocol: as §1
# [27] = biological target: MUC19, Q7Z5P9
# Protocol: as §1
# [28] = biological target: NCLN, Q969V3
# Protocol: as §1
# [29] = biological target: NHP2, Q9NX24
# Protocol: as §1
# [30] = biological target: NQO2, P16083
# Protocol: as §1
# [31] = biological target: OPA1, O60313
# Protocol: as §1
# [32] = biological target: PDCD6IP, Q8WUM4
# Protocol: as §1
# [33] = biological target: PDIA3, P30101
# Protocol: as §1
# [34] = biological target: PPP2R5D, Q14738
# Protocol: as §1
# [35] = biological target: PRPF8, Q6P2Q9
# Protocol: as §1
# [36] = biological target: PTMS, P20962
# Protocol: as §1
# [37] = biological target: RACGAP1, Q9H0H5
# Protocol: as §1
# [38] = biological target: RAPGEF2, Q9Y4G8
# Protocol: as §1
# [39] = biological target: RBM28, Q9NW13
# Protocol: as §1
# [40] = biological target: RCN1, Q15293
# Protocol: as §1
# [41] = biological target: RRBP1, Q9P2E9
# Protocol: as §1
# [42] = biological target: RRP1, P56182
# Protocol: as §1
# [43] = biological target: SERF1B, O75920
# Protocol: as §1
# [44] = biological target: SOAT1, P35610
# Protocol: as §1
# [45] = biological target: TALDO1, P37837
# Protocol: as §1
# [46] = biological target: TPM3, P06753
# Protocol: as §1
# [47] = biological target: UBE2N, P61088
# Protocol: as §1
# [48] = biological target: USP9X, Q93008
# Protocol: as §1
# [49] = biological target: WDR11, Q9BZH6
# Protocol: as §1
# [50] = biological target: ABT1, Q9ULW3
# Protocol: as §1
# [51] = biological target: CDK11A, Q9UQ88
# Protocol: as §1
# [52] = biological target: CNN3, Q15417
# Protocol: as §1
# [53] = biological target: COPG2, Q9UBF2
# Protocol: as §1
# [54] = biological target: EEF1B2, P24534
# Protocol: as §1
# [55] = biological target: FAM136A, Q96C01
# Protocol: as §1
# [56] = biological target: GNB1, P62873
# Protocol: as §1
# [57] = biological target: LSM8, O95777
# Protocol: as §1
# [58] = biological target: MRPL39, Q9NYK5
# Protocol: as §1
# [59] = biological target: MRPL48, Q96GC5
# Protocol: as §1
# [60] = biological target: MRPL58, Q14197
# Protocol: as §1
# [61] = biological target: MTHFD1L, Q6UB35
# Protocol: as §1
# [62] = biological target: NDUFS1, P28331
# Protocol: as §1
# [63] = biological target: NDUFS5, O43920
# Protocol: as §1
# [64] = biological target: NEPRO, Q6NW34
# Protocol: as §1
# [65] = biological target: NOL6, Q9H6R4
# Protocol: as §1
# [66] = biological target: NUP214, P35658
# Protocol: as §1
# [67] = biological target: NVL, O15381
# Protocol: as §1
# [68] = biological target: PPHLN1, Q8NEY8
# Protocol: as §1
# [69] = biological target: RAB5C, P51148
# Protocol: as §1
# [70] = biological target: UTP14A, Q9BVJ6
# Protocol: as §1
binder,measurement,setting,value
SSLEGAAGTGKRDLQ [PEX2],PRISMA enrichment of interactor (log2),[1],3.9
same,PRISMA enrichment of interactor (log2),[2],4.82
same,PRISMA enrichment of interactor (log2),[3],5.69
same,PRISMA enrichment of interactor (log2),[4],5.54
same,PRISMA enrichment of interactor (log2),[5],6.53
same,PRISMA enrichment of interactor (log2),[6],6.87
same,PRISMA enrichment of interactor (log2),[7],4.44
same,PRISMA enrichment of interactor (log2),[8],6.02
same,PRISMA enrichment of interactor (log2),[9],5.09
same,PRISMA enrichment of interactor (log2),[10],5.73
same,PRISMA enrichment of interactor (log2),[11],4.72
same,PRISMA enrichment of interactor (log2),[12],6.44
same,PRISMA enrichment of interactor (log2),[13],4.76
same,PRISMA enrichment of interactor (log2),[14],5.57
same,PRISMA enrichment of interactor (log2),[15],4.36
same,PRISMA enrichment of interactor (log2),[16],5.18
same,PRISMA enrichment of interactor (log2),[17],5.23
same,PRISMA enrichment of interactor (log2),[18],6.09
same,PRISMA enrichment of interactor (log2),[19],4.88
same,PRISMA enrichment of interactor (log2),[20],4.85
same,PRISMA enrichment of interactor (log2),[21],4.81
same,PRISMA enrichment of interactor (log2),[22],6.23
same,PRISMA enrichment of interactor (log2),[23],7.44
same,PRISMA enrichment of interactor (log2),[24],3.97
same,PRISMA enrichment of interactor (log2),[25],4.47
same,PRISMA enrichment of interactor (log2),[26],5.11
same,PRISMA enrichment of interactor (log2),[27],7.15
same,PRISMA enrichment of interactor (log2),[28],6.55
same,PRISMA enrichment of interactor (log2),[29],14.7
same,PRISMA enrichment of interactor (log2),[30],4.49
same,PRISMA enrichment of interactor (log2),[31],6.7
same,PRISMA enrichment of interactor (log2),[32],4.78
same,PRISMA enrichment of interactor (log2),[33],5.74
same,PRISMA enrichment of interactor (log2),[34],5.19
same,PRISMA enrichment of interactor (log2),[35],5.82
same,PRISMA enrichment of interactor (log2),[36],3.91
same,PRISMA enrichment of interactor (log2),[37],6.69
same,PRISMA enrichment of interactor (log2),[38],11.2
same,PRISMA enrichment of interactor (log2),[39],4.95
same,PRISMA enrichment of interactor (log2),[40],7.45
same,PRISMA enrichment of interactor (log2),[41],5.58
same,PRISMA enrichment of interactor (log2),[42],11.1
same,PRISMA enrichment of interactor (log2),[43],3.78
same,PRISMA enrichment of interactor (log2),[44],4.32
same,PRISMA enrichment of interactor (log2),[45],4.99
same,PRISMA enrichment of interactor (log2),[46],3.92
same,PRISMA enrichment of interactor (log2),[47],7.54
same,PRISMA enrichment of interactor (log2),[48],4.9
same,PRISMA enrichment of interactor (log2),[49],6.09
TGRRLITPMIMSTTA [PDZRN3-AS1],PRISMA enrichment of interactor (log2),[50],4.67
same,PRISMA enrichment of interactor (log2),[51],7.81
same,PRISMA enrichment of interactor (log2),[52],5.4
same,PRISMA enrichment of interactor (log2),[53],4.82
same,PRISMA enrichment of interactor (log2),[54],5.51
same,PRISMA enrichment of interactor (log2),[55],4.73
same,PRISMA enrichment of interactor (log2),[56],5.03
same,PRISMA enrichment of interactor (log2),[57],4.79
same,PRISMA enrichment of interactor (log2),[58],4.93
same,PRISMA enrichment of interactor (log2),[59],4.62
same,PRISMA enrichment of interactor (log2),[60],5.32
same,PRISMA enrichment of interactor (log2),[61],4.74
same,PRISMA enrichment of interactor (log2),[62],7.17
same,PRISMA enrichment of interactor (log2),[63],4.12
same,PRISMA enrichment of interactor (log2),[64],6.79
same,PRISMA enrichment of interactor (log2),[65],5.15
same,PRISMA enrichment of interactor (log2),[66],4.85
same,PRISMA enrichment of interactor (log2),[67],5.83
same,PRISMA enrichment of interactor (log2),[68],4.9
same,PRISMA enrichment of interactor (log2),[69],4.73
same,PRISMA enrichment of interactor (log2),[70],5.09

# Some of the entries above in another layout:
binder	measurement	setting	value
SSLEGAAGTGKRDLQ [PEX2]	PRISMA enrichment of interactor (log2)	[8]	6.02
same	PRISMA enrichment of interactor (log2)	[9]	5.09
same	PRISMA enrichment of interactor (log2)	[10]	5.73
same	PRISMA enrichment of interactor (log2)	[11]	4.72
same	PRISMA enrichment of interactor (log2)	[12]	6.44
same	PRISMA enrichment of interactor (log2)	[13]	4.76
same	PRISMA enrichment of interactor (log2)	[14]	5.57
same	PRISMA enrichment of interactor (log2)	[15]	4.36
same	PRISMA enrichment of interactor (log2)	[16]	5.18
same	PRISMA enrichment of interactor (log2)	[17]	5.23
same	PRISMA enrichment of interactor (log2)	[18]	6.09
same	PRISMA enrichment of interactor (log2)	[19]	4.88
same	PRISMA enrichment of interactor (log2)	[20]	4.85
same	PRISMA enrichment of interactor (log2)	[21]	4.81
same	PRISMA enrichment of interactor (log2)	[22]	6.23
same	PRISMA enrichment of interactor (log2)	[23]	7.44
same	PRISMA enrichment of interactor (log2)	[24]	3.97
same	PRISMA enrichment of interactor (log2)	[25]	4.47
